# Assay results from the supplement of paper PMC12819154, “High-throughput peptide-centric local stability assay extends protein–ligand identification to membrane proteins, tissues and bacteria” (Nature Structural & Molecular Biology, 2025).
# Amino acid sequences for entries named in this document (tags omitted). A change or cut given only in a name is not applied to a line headed by its entry.
# UniProt Q61268: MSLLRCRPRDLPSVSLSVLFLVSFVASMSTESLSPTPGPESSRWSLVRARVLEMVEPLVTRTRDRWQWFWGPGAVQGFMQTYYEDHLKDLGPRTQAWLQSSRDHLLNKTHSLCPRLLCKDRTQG
# UniProt Q64213: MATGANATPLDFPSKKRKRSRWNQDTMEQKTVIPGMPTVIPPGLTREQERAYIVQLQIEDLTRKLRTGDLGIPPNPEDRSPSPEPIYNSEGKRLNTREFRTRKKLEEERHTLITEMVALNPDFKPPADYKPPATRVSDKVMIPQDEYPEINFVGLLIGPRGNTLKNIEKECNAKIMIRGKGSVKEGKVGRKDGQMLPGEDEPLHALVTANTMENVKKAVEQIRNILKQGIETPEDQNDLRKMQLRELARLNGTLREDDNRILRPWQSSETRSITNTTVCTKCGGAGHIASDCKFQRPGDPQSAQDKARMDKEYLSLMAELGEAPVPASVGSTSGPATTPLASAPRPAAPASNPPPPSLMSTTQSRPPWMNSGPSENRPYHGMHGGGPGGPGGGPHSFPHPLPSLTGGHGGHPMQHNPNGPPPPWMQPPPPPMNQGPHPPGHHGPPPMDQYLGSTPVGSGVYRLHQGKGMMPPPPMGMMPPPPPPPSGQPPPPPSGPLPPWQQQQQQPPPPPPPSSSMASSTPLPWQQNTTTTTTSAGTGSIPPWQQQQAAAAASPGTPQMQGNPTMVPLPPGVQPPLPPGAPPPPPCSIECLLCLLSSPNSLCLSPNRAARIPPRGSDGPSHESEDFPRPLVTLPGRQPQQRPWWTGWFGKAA
# UniProt Q61595: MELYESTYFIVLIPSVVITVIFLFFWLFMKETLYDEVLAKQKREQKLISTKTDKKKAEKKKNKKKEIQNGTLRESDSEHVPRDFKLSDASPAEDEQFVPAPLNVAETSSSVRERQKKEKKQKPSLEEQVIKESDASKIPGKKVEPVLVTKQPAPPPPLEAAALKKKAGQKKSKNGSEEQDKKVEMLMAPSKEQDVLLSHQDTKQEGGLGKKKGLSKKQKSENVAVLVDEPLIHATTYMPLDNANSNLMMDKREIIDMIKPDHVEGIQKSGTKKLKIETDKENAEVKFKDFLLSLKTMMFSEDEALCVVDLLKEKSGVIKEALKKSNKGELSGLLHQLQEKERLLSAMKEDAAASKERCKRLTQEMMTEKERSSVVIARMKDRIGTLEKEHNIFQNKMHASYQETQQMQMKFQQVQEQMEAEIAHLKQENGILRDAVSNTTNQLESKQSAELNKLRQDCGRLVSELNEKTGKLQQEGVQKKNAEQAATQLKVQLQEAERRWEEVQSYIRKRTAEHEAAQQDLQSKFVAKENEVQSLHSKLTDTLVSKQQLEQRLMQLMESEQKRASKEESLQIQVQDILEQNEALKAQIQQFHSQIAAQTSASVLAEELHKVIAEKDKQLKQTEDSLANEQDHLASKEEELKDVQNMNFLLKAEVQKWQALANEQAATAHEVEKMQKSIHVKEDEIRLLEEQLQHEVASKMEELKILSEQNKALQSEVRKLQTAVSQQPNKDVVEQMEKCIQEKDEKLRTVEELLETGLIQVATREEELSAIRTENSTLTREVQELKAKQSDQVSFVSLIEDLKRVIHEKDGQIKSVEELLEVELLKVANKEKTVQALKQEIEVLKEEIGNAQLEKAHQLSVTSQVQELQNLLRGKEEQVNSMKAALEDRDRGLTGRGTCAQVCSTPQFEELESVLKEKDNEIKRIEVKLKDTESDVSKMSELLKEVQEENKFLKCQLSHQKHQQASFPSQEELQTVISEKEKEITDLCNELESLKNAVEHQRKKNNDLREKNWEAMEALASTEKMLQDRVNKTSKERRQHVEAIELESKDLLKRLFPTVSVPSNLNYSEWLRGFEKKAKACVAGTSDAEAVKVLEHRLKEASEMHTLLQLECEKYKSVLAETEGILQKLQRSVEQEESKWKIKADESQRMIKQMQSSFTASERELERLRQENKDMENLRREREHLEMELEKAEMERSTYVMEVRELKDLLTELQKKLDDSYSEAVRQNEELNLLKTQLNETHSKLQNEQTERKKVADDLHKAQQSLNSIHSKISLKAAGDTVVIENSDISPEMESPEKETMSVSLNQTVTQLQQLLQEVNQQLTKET
# UniProt Q6NSQ7: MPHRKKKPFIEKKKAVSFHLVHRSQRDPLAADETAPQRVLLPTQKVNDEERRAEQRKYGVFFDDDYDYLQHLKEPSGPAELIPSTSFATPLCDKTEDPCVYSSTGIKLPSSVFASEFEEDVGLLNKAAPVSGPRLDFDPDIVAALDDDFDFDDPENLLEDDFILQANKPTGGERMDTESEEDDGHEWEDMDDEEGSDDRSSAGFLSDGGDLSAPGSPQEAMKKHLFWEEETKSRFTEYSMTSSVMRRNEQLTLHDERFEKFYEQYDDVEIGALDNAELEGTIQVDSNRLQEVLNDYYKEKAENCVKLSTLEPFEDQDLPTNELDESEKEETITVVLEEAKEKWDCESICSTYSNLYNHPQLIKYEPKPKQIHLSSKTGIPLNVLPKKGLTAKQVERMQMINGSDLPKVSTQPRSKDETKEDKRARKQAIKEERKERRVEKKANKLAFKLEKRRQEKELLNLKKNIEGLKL
# UniProt Q61469: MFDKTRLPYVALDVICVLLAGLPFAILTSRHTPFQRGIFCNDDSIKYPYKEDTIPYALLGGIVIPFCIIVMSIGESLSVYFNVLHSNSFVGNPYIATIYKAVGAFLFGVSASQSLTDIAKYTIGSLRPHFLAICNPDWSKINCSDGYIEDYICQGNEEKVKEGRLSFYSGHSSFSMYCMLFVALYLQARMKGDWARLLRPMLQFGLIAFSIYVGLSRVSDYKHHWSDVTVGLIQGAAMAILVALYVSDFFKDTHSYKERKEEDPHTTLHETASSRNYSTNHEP
# UniProt Q63886: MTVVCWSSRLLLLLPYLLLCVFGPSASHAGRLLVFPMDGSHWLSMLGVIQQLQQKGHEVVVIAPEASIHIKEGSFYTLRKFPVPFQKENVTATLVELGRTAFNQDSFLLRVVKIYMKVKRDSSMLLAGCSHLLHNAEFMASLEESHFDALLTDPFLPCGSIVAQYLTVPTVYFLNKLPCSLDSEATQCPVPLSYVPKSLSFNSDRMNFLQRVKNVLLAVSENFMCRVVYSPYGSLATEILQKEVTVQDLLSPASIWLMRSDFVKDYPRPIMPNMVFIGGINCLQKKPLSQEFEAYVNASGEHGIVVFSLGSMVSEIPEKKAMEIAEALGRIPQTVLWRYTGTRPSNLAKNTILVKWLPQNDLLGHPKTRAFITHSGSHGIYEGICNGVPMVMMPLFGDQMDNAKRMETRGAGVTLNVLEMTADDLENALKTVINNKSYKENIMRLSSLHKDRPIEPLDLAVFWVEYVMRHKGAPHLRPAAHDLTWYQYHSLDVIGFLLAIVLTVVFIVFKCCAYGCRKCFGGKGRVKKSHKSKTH
# UniProt Q60847: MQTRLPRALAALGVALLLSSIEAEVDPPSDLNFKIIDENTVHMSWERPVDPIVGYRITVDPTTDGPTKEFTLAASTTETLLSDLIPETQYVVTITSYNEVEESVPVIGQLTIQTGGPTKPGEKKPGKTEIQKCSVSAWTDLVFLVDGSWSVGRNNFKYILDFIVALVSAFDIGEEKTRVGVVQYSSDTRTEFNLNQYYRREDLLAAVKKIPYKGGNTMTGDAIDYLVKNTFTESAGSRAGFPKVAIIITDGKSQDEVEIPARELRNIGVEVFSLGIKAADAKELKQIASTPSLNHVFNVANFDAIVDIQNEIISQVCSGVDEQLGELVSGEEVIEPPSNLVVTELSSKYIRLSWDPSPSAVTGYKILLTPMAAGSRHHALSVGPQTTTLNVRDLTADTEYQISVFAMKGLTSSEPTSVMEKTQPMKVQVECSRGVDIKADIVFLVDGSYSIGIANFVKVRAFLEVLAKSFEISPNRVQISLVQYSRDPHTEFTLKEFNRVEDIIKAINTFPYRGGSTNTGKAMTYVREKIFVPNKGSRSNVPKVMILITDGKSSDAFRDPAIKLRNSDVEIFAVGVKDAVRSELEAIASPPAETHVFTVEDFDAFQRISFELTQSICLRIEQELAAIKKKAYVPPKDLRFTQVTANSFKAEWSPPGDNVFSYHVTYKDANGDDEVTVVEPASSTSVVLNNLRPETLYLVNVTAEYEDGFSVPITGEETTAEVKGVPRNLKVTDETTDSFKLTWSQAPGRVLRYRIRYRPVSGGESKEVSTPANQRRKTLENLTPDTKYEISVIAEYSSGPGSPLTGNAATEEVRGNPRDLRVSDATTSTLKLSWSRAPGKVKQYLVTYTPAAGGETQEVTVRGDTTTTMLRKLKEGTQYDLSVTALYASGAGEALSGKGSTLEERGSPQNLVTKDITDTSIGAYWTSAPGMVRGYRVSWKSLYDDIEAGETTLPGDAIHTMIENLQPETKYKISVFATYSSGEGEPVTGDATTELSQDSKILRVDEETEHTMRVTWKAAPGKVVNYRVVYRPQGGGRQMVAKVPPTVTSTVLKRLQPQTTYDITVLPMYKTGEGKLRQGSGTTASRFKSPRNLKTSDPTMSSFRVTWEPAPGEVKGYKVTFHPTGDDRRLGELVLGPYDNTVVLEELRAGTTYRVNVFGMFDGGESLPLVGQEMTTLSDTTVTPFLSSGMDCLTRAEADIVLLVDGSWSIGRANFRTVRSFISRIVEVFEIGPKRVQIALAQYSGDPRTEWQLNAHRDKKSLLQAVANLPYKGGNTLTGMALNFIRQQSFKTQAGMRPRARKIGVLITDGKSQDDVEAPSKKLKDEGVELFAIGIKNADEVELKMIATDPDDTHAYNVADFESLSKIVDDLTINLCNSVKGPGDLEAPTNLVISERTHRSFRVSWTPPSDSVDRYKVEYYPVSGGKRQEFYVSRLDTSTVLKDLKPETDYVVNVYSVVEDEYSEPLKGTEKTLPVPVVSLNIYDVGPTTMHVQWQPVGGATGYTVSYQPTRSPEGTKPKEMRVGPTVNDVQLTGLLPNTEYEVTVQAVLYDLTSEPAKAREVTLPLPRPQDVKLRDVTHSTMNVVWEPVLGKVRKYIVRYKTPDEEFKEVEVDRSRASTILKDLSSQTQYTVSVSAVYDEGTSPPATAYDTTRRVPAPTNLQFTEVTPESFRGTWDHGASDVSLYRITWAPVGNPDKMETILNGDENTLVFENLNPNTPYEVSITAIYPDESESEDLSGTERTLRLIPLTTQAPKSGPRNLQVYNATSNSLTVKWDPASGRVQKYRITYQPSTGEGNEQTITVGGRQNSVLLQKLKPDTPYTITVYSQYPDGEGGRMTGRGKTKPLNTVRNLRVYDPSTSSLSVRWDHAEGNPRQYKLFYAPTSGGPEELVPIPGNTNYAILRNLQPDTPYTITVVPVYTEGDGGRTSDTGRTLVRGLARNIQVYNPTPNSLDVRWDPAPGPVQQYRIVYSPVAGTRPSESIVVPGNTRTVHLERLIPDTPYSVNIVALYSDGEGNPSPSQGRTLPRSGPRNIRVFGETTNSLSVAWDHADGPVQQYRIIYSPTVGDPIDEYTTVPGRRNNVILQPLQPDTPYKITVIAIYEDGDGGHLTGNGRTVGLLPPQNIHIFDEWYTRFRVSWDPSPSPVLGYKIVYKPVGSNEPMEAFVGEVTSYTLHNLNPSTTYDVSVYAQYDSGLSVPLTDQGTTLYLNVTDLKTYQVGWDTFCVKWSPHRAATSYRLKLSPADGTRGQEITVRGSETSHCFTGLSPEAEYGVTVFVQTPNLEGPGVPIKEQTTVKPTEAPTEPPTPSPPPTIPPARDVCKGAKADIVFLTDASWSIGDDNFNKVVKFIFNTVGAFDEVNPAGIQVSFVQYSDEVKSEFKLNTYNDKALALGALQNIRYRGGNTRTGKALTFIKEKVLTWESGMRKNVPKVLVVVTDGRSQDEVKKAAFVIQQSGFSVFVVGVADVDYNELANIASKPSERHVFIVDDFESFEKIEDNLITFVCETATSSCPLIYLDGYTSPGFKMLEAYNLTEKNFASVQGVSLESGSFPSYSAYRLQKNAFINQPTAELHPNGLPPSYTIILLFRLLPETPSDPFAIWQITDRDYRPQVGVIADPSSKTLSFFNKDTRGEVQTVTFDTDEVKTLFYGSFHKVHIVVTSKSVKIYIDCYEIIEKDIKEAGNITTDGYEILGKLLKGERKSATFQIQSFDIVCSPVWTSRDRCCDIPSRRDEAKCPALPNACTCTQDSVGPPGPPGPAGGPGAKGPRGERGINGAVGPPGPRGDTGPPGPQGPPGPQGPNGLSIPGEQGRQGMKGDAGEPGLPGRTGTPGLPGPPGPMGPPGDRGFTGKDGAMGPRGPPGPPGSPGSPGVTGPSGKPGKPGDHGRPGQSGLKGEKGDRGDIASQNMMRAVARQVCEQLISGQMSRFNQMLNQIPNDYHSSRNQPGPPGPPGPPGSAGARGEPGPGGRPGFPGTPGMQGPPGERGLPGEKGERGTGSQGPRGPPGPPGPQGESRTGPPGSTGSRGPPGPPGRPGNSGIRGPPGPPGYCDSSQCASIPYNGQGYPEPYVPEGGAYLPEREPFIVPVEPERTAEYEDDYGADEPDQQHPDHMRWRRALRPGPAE
# The list shows a part of the results. Small differences around the control level are noise.
# Compound: CN[C@@H]1C[C@H]2O[C@@](C)([C@@H]1OC)n1c3ccccc3c3c4c(c5c6ccccc6n2c5c31)C(=O)NC4 [staurosporine]
# Assay: log2 fold change of pooled soluble protein (PISA), ligand vs vehicle (log2 ratio); higher = more thermally stabilized
# Details: ligand concentration: 20 uM; assay format: PISA pool 52.9/55.5/58.6 C
row,Target,log2 fold change of pooled soluble protein
1,UniProt Q61268,0.109
2,UniProt Q6A0A2,-0.051
3,UniProt Q61823,0.0552
4,UniProt Q6A065,-0.0575
5,UniProt Q60692,-0.053
6,UniProt Q64514,0.0215
7,UniProt Q64213,-0.017
8,UniProt Q69ZC8,-0.0765
9,UniProt Q61739,0.1
10,UniProt Q64012,-0.123
11,UniProt Q5SFM8,-0.0558
12,UniProt Q61503,0.0139
13,UniProt Q69Z38,0.115
14,UniProt Q61595,-0.014
15,UniProt Q6NSQ7,0.123
16,UniProt Q62261,-0.0322
17,UniProt Q61646,-0.00844
18,UniProt Q6IFZ9,-0.255

# 10 successive records from above, quoted:
row,Target,log2 fold change of pooled soluble protein
4,UniProt Q6A065,-0.0575
5,UniProt Q60692,-0.053
6,UniProt Q64514,0.0215
7,UniProt Q64213,-0.017
8,UniProt Q69ZC8,-0.0765
9,UniProt Q61739,0.1
10,UniProt Q64012,-0.123
11,UniProt Q5SFM8,-0.0558
12,UniProt Q61503,0.0139
13,UniProt Q69Z38,0.115

# (next part)

row,Target,log2 fold change of pooled soluble protein
1,UniProt Q61469,-0.293
2,UniProt Q61420,-0.0959
3,UniProt Q5U405,0.0302
4,UniProt Q6IRU5,0.152
5,UniProt Q6DYE8,-0.608
6,UniProt Q6DFV3,0.0159
7,UniProt Q64433,-0.0634
8,UniProt Q61009,-0.243
9,UniProt Q60648,-0.031
10,UniProt Q60787,-0.356
11,UniProt Q63886,0.102
12,UniProt Q61124,0.436
13,UniProt Q62186,-0.289
14,UniProt Q60847,0.00718
15,UniProt Q6IRU2,-0.046
16,UniProt Q62189,-0.0263
17,UniProt Q62417,-0.0542
18,UniProt Q61419,0.0398
